# Assay results reported in paper PMC2387164.
# Chains of the proteins cited; added tags and fusions are not shown. Lines headed by an entry give the natural chain unless they say otherwise; changes in a name come on top.
# UniProt Q08369: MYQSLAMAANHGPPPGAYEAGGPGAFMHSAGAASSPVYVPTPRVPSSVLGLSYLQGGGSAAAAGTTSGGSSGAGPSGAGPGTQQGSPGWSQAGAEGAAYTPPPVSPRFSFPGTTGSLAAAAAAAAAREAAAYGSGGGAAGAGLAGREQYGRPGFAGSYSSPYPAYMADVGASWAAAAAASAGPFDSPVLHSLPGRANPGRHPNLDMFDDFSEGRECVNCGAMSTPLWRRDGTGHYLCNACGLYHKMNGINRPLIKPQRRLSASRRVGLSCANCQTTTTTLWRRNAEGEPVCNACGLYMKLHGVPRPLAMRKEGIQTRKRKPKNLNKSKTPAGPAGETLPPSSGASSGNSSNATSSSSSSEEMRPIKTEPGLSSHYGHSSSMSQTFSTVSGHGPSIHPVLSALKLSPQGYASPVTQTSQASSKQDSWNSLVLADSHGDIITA
# Construct, isoform or probe ends are uncertain for at least one entry. At least one verdict was read from the data and is not stated in words by the source.
# Target: GATA4 (UniProt Q08369)
# Assay: EMSA
# Details: labeled probe, self competitor; EMSA conditions as described previously (ref. 48); pH and temperature not given; protein translated in vitro; label: 32P (as probe)
sequence,measurement,value
GATCCACTTTTTTATCTCAAGTGA / GATCTCACTTGAGATAAAAAAGTG [murine Star GATA],binding result,binds
